{"source": "PubChem BioAssay AID1224829 (NIAID, 2016)", "purpose": "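Follow-up of TLR4-NF-kappaB regulators using six separate siRNAs for each gene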 (follow-up of hits)", "system": "mouse RAW264.7 G9 macrophage reporter cells", "reagent": "single siRNA against mouse genes, 100 nM", "timing": "2 days of siRNA knock-down, then 40 min of LPS before fixing", "treatment": "LPS (Salmonella minnesota R595) at 10 ng/ml", "detection": "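High-content images after 40 min LPS exposure; GFP-p65 nucleus to surrounding ring signal ratio, normalised to plate median and non-targeting control wells, expressed as z-score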", "direction": "p65 translocation z-score: higher = more nuclear NF-kappaB p65 after LPS", "hit rule": "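Active means the replicate-mean z-score lies beyond plus or minus 2, in either direction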", "calls": "active = changed p65 translocation (either direction); inactive = no clear change", "note": "In all, the deposit lists about 3,800 reagents; shown is a random part of them. 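Calls cover raised and lowered translocation; gene median uses one vendor's three siRNAs; qiagen siRNAs acted more weakly than ambion siRNAs.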 Reagents against one gene are numbered here. Further read-outs or replicates are left out here."}
{"gene knocked down":"Htra3 (HtrA serine peptidase 3)","siRNA no.":1,"siRNA vendor or control pool":"ambion single siRNA","p65 translocation z-score, replicate mean":-8.12,"activity call":"active"}
{"gene knocked down":"Htra3 (HtrA serine peptidase 3)","siRNA no.":2,"siRNA vendor or control pool":"ambion single siRNA","p65 translocation z-score, replicate mean":-4.72,"activity call":"active"}
{"gene knocked down":"Htra3 (HtrA serine peptidase 3)","siRNA no.":3,"siRNA vendor or control pool":"ambion single siRNA","p65 translocation z-score, replicate mean":-5.72,"activity call":"active"}
{"gene knocked down":"Htra3 (HtrA serine peptidase 3)","siRNA no.":4,"siRNA vendor or control pool":"qiagen single siRNA","p65 translocation z-score, replicate mean":0.933,"activity call":"inactive"}
{"gene knocked down":"Htra3 (HtrA serine peptidase 3)","siRNA no.":5,"siRNA vendor or control pool":"qiagen single siRNA","p65 translocation z-score, replicate mean":-1.76,"activity call":"inactive"}
{"gene knocked down":"Htra3 (HtrA serine peptidase 3)","siRNA no.":6,"siRNA vendor or control pool":"qiagen single siRNA","p65 translocation z-score, replicate mean":-8.26,"activity call":"active"}
{"gene knocked down":"Zeb2 (zinc finger E-box binding homeobox 2)","siRNA no.":1,"siRNA vendor or control pool":"ambion single siRNA","p65 translocation z-score, replicate mean":-2.09,"activity call":"active"}
{"gene knocked down":"Zeb2 (zinc finger E-box binding homeobox 2)","siRNA no.":2,"siRNA vendor or control pool":"ambion single siRNA","p65 translocation z-score, replicate mean":-1.27,"activity call":"inactive"}
{"gene knocked down":"Zeb2 (zinc finger E-box binding homeobox 2)","siRNA no.":3,"siRNA vendor or control pool":"ambion single siRNA","p65 translocation z-score, replicate mean":-2.92,"activity call":"active"}
{"gene knocked down":"Zeb2 (zinc finger E-box binding homeobox 2)","siRNA no.":4,"siRNA vendor or control pool":"qiagen single siRNA","p65 translocation z-score, replicate mean":-1.5,"activity call":"inactive"}
{"gene knocked down":"Zeb2 (zinc finger E-box binding homeobox 2)","siRNA no.":5,"siRNA vendor or control pool":"qiagen single siRNA","p65 translocation z-score, replicate mean":-2.18,"activity call":"active"}
{"gene knocked down":"Zeb2 (zinc finger E-box binding homeobox 2)","siRNA no.":6,"siRNA vendor or control pool":"qiagen single siRNA","p65 translocation z-score, replicate mean":-3.77,"activity call":"active"}

Laid out differently: entries from further up
{"gene knocked down": "Zeb2 (zinc finger E-box binding homeobox 2)", "siRNA no.": 4, "siRNA vendor or control pool": "qiagen single siRNA", "p65 translocation z-score, replicate mean": -1.5, "activity call": "inactive"}
{"gene knocked down": "Zeb2 (zinc finger E-box binding homeobox 2)", "siRNA no.": 5, "siRNA vendor or control pool": "qiagen single siRNA", "p65 translocation z-score, replicate mean": -2.18, "activity call": "active"}
